From paper PMC7862700
This is a selection; strong and weak results do not stand in their true shares. For part of these data: At the low end of the ranking the order means little. The list shows a part of the results. For part of these data: Construct or isoform of the protein are uncertain.

target: T1, ETS1 (UniProt P14921); experiment: DAPPL (digital affinity profiling via proximity ligation, sequencing); conditions: 10 mM Tris-HCl pH 7.5, 50 mM NaCl, 1 mM DTT, 4% glycerol, room temperature, 30 min; GST-TFs on glutathione beads, 16-mer random dsDNA library, 0.1% …; high values mean tight binding; double strand, one strand shown; scale: fold enrichment (6-mer frequency, TF over GST control)
T1 sequence: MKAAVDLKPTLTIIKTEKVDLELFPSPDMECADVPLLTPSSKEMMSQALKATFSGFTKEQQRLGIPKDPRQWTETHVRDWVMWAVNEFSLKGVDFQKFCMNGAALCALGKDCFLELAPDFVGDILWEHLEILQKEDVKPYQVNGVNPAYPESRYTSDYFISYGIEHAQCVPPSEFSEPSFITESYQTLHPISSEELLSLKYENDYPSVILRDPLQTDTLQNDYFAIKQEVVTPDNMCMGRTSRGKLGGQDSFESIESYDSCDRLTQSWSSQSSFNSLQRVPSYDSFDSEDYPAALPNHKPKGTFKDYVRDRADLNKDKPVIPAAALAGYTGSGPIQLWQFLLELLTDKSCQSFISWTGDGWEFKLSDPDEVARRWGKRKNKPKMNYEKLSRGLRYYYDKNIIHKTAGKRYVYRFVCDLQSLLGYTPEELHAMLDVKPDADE

Sequence | binding signal
CTACTC | 1.39
TATTCC | 1.53
TCCTCC | 1.62
TTTGCT | 1.19
TTAACA | 1.19
CGGATA | 1.14
TATTCG | 1.21
GATTTT | 1.14
CCATTC | 1.17
GTTTCG | 1.26
GTTTGG | 1.05
CATCCC | 1.16
AGCCCC | 1.11
CGTTCA | 1.21
TTTACG | 1.34
ATTCTA | 1.21
GGTCCC | 1.22
AAGCAC | 1.16
TCCATC | 1.16
CGCCTT | 1.46

Sequence | binding signal
TAGTCT | 1.21
CCTGGG | 1.2
ATGACA | 1.26
ATCATG | 1.13
TTGATT | 1.21
CGCTAC | 1.15
TCTCTA | 1.32
TGCGAT | 1.13
TTAAAC | 1.32
CTGGGT | 1.21
GTCCAC | 1.04
TCGCTC | 1.22
TATTCA | 1.43
TCGCTA | 1.16
TGTGCT | 1.14
CCGGTA | 1.51
TATGGC | 1.3
TACGTT | 1.23
TCAATA | 1.17

target: T2, SPDEF (UniProt O95238); experiment: as above; conditions: 10 mM Tris-HCl pH 7.5, 50 mM NaCl, 1 mM DTT, 4% glycerol, room temperature, 30 min; GST-TFs on glutathione beads, 16-mer random dsDNA library, 0.1% …; high values mean tight binding; double strand, one strand shown; scale: fold enrichment (6-mer frequency, TF over GST control)
T2 sequence: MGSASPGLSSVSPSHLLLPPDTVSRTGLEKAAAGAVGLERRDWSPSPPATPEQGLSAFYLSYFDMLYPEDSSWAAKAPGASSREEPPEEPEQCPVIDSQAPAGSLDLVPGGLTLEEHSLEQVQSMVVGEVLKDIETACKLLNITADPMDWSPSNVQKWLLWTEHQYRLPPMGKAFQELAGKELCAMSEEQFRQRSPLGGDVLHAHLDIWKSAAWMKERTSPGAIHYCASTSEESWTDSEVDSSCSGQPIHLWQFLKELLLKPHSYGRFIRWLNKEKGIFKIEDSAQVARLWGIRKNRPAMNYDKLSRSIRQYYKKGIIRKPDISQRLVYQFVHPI

Sequence | binding signal
CTACTC | 1.29
TATTCC | 1.83
TCCTCC | 1.61
TTTGCT | 1.16
TTAACA | 1.21
CGGATA | 1.93
TATTCG | 1.1
GATTTT | 1.14
CCATTC | 1.13
GTTTCG | 1.27
GTTTGG | 0.94
CATCCC | 1.47
AGCCCC | 0.97
CGTTCA | 1.14
TTTACG | 1.26
ATTCTA | 1.23
GGTCCC | 1.29
AAGCAC | 1.29
TCCATC | 1.3
CGCCTT | 1.3

Sequence | binding signal
TAGTCT | 0.938
CCTGGG | 1.11
ATGACA | 1.31
ATCATG | 1.07
TTGATT | 1.15
CGCTAC | 1.21
TCTCTA | 1.24
TGCGAT | 1.15
TTAAAC | 1.18
CTGGGT | 1.08
GTCCAC | 0.933
TCGCTC | 1.19
TATTCA | 1.28
TCGCTA | 1.03
TGTGCT | 1.31
CCGGTA | 1.96
TATGGC | 1.27
TACGTT | 1.22
TCAATA | 1.17
